According to article PMC12151379:
Results are given in words; binding and its absence hold for the method and conditions named. Binding seen in cells or lysates may run through a third protein. Some results given as binding are weak or reduced against the parent protein; the word gives no strength. Where a sequence is shown, tags or fusion partners need not be part of it.

Sequences of proteins named here, by UniProt entry; tags and fusion partners are left off. A change or cut given only in a name is not applied to a line headed by its entry. A line that says so, or that is headed by a name, gives the form on record, which may keep a tag or linker.
UniProt O75334: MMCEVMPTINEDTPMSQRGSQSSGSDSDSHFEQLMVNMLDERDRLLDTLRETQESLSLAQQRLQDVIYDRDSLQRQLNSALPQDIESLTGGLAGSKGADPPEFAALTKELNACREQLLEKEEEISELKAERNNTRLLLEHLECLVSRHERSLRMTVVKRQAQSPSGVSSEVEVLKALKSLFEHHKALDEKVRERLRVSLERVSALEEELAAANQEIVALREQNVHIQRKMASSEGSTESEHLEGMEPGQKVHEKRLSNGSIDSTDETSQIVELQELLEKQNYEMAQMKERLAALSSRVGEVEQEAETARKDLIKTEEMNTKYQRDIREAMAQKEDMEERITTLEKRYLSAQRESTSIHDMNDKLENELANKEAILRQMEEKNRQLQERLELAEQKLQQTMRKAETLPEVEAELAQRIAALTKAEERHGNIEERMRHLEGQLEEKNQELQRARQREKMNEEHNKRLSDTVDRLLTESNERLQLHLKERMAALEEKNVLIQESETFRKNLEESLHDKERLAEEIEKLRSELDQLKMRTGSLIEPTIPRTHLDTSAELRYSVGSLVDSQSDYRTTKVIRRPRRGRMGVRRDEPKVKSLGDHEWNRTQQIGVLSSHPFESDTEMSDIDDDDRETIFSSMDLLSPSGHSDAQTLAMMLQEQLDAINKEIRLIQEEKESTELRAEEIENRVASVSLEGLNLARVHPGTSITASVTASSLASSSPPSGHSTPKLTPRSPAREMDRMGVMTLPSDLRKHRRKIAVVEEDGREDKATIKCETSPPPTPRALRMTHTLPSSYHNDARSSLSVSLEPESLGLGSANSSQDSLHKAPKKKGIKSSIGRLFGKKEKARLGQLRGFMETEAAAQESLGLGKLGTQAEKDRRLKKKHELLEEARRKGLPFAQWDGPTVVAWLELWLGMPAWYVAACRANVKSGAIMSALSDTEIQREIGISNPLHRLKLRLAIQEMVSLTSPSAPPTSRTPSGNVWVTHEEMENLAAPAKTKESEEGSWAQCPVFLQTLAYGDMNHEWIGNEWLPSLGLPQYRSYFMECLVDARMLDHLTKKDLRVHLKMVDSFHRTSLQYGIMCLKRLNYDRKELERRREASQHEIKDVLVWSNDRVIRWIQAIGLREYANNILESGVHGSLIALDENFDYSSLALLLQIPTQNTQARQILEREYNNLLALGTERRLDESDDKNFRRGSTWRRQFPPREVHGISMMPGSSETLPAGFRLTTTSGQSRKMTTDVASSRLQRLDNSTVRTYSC
GFP-tagged liprin-α2 ΔCC2N (O75334, form named): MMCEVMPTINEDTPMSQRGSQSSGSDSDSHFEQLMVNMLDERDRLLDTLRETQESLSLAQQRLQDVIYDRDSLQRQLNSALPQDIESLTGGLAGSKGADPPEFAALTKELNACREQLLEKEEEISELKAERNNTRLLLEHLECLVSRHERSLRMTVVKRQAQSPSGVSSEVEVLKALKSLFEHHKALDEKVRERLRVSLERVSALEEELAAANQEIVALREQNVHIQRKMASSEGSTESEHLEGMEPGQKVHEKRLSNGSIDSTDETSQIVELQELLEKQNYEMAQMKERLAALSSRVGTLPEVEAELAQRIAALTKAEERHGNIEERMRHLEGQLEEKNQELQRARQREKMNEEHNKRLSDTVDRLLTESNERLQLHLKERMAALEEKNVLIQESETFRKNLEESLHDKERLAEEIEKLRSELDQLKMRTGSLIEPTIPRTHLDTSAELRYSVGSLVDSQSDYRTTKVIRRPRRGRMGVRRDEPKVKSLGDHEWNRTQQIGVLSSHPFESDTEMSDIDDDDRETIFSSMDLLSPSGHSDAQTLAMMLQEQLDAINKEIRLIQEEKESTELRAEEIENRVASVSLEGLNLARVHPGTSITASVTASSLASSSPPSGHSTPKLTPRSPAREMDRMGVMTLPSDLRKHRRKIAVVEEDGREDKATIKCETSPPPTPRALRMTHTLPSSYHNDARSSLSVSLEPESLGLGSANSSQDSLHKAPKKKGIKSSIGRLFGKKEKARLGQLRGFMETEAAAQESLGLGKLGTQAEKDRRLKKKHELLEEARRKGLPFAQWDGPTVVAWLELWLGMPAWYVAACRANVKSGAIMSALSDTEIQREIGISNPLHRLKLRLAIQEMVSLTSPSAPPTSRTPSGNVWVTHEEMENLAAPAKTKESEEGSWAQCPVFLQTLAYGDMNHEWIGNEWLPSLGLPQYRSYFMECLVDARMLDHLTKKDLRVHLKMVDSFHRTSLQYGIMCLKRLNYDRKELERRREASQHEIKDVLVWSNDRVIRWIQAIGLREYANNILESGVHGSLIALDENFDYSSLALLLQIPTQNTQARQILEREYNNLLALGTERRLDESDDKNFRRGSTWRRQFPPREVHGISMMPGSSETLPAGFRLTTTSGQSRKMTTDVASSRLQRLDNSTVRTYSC

Columns and labels:
Assay in all cases: co-IP; HEK293T co-transfected; lysate on anti-GFP agarose beads, 60 min, 4 °C; blots with anti-GFP and anti-FLAG
[1] = target: GFP-tagged liprin-α2 R346E (human) (UniProt O75334)
[2] = target: GFP-tagged liprin-α2 (wild type) (human) (UniProt O75334)
[3] = target: GFP-tagged liprin-α2 ΔCC2N (human) (UniProt O75334)
[4] = target: GFP-tagged liprin-α2 E344R (human) (UniProt O75334)

binding [1]: binds
binding [2]: binds
binding [3]: binds
binding [4]: binds
B1: Flag-tagged ELKS1 (protein, UniProt Q811U3 1-948)
chain: MYGSARSVGKVEPSSQSPGRSPRLPRSPRLGHRRTNSTGGSSGNSVGGGSGKTLSMENIQSLNAAYATSGPMYLSDHENVGAETPKSTMTLGRSGGRLPYGVRMTAMGSSPNIASSGVASDTIAFGEHHLPPVSMASTVPHSLRQARDNTIMDLQTQLKEVLRENDLLRKDVEVKESKLSSSMNSIKTFWSPELKKERALRKDEASKITIWKEQYRVVQEENQHMQMTIQALQDELRIQRDLNQLFQQDSSSRTGEPCVAELTEENFQRLHAEHERQAKELFLLRKTLEEMELRIETQKQTLNARDESIKKLLEMLQSKGLSAKATEEDHERTRRLAEAEMHVHHLESLLEQKEKENNMLREEMHRRFENAPDSAKTKALQTVIEMKDSKISSMERGLRDLEEEIQMLKSNGALSTEEREEEMKQMEVYRSHSKFMKNKIGQVKQELSRKDTELLALQTKLETLTNQFSDSKQHIEVLKESLTAKEQRAAILQTEVDALRLRLEEKETMLNKKTKQIQDMAEEKGTQAGEIHDLKDMLDVKERKVNVLQKKIENLQEQLRDKEKQMSSLKERVKSLQADTTNTDTALTTLEEALADKERTIERLKEQRDRDEREKQEEIDTYKKDLKDLKEKVSLLQGDLSEKEASLLDLKEHASSLASSGLKKDSRLKTLEIALEQKKEECLKMESQLKKAHEATLEARASPEMSDRIQQLEREIARYKDESSKAQTEVDRLLEILKEVENEKNDKDKKIAELESLTSRQVKDQNKKVANLKHKEQVEKKKSAQMLEEARRREDSLSDSSQQLQVEELLMAMEKVKQELESMKAKLSSTQQSLAEKETHLTNLRAERRKHLEEVLEMKQEALLAAISEKDANIALLELSSSKKKTQEEVAALKREKDRLVQQLKQQTQNRMKLMADNYEDDHFRSSRSNQTNHKPSPDQDEEEGIWA
